Assay results taken from PMC8403768.
These are yes or no findings as the source states them, for the method shown. In cells and extracts the contact can be indirect. Some binding calls cover weakened binding; strength is not graded here. Values belong to the molecule of their own block, whether it stands above or below them.

Amino acid sequences for entries named in this document (tags omitted). A change or cut given only in a name is not applied to a line headed by its entry.
UniProt P35637: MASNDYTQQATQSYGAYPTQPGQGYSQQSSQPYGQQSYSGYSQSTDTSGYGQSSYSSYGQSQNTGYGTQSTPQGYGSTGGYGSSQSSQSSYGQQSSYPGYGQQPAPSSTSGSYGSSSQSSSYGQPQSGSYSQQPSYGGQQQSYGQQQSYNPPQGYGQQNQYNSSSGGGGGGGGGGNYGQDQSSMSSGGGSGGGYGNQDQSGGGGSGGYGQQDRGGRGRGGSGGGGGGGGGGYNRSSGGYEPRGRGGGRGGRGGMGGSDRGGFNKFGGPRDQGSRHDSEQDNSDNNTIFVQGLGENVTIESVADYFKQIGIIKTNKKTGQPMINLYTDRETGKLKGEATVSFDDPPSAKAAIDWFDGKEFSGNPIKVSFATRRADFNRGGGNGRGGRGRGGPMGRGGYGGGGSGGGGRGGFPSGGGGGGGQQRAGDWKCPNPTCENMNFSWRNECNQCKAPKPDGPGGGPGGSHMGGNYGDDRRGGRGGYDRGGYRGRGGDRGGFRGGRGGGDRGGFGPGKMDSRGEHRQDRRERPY
UniProt P12004: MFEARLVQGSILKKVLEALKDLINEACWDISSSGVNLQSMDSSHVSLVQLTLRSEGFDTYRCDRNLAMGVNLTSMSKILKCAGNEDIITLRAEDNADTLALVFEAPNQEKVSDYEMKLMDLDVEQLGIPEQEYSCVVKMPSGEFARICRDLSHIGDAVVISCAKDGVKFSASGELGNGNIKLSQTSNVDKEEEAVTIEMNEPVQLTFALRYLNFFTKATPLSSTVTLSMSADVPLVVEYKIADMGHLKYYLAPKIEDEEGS
UniProt P28340: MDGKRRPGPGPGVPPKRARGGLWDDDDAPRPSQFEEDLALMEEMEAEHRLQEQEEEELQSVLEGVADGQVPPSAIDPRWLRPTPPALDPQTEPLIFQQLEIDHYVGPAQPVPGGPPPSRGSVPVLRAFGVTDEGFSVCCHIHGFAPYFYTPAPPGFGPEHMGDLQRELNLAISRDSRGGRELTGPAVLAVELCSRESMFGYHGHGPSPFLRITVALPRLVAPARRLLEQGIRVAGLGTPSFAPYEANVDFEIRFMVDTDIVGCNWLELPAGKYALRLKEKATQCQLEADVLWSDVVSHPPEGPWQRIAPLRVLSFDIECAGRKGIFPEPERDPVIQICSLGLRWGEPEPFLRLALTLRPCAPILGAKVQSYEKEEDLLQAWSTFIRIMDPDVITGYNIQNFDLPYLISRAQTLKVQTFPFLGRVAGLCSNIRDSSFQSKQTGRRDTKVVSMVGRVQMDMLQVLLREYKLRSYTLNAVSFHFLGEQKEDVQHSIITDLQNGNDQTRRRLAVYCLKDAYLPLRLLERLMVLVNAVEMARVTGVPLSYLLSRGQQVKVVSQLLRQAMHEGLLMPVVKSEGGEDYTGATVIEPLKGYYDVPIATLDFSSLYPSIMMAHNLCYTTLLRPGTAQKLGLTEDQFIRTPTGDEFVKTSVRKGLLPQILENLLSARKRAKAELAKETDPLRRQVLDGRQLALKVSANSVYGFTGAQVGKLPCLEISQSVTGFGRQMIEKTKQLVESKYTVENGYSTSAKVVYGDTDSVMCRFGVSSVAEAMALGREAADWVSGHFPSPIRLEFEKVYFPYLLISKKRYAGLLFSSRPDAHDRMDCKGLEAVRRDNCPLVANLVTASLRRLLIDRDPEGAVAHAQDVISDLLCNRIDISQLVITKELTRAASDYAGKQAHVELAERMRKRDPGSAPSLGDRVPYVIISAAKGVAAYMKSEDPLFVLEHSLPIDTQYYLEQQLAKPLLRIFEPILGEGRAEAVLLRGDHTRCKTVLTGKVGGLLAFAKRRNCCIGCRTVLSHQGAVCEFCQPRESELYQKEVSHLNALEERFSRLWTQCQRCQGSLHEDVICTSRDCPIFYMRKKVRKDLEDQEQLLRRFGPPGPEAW
UniProt P11387: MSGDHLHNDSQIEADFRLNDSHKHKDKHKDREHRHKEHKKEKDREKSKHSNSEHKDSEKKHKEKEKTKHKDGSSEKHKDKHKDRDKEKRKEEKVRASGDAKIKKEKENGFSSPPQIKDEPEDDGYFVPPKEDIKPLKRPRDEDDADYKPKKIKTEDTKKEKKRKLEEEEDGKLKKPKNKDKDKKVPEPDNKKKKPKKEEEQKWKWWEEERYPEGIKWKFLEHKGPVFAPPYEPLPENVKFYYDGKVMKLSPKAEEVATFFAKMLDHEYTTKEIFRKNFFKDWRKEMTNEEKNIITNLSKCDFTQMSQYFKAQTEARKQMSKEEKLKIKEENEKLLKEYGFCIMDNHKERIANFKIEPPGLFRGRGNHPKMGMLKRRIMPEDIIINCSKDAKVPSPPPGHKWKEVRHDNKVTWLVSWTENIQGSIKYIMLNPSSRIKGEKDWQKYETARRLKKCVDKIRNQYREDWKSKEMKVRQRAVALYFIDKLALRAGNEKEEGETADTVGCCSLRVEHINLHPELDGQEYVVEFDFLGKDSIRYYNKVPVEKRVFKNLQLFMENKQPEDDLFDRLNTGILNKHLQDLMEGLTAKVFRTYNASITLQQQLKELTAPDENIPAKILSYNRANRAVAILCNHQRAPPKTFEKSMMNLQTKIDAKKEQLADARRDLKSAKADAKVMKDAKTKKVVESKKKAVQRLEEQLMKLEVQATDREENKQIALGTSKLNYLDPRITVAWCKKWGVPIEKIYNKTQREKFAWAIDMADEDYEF

Key:
[1] = molecular target: Fused in sarcoma (FUS) (human (endogenous in U-2 OS)) (UniProt P35637); experiment: co-IP; same crosslinking chromatin IP of endogenous FUS with anti-FUS antibody, beads washed with LB3 and RIPA buffer, Western blot; unsynchronized cells or synchronized S-phase cells
[2] = molecular target: Fused in sarcoma (FUS) (human (endogenous in U-2 OS)) (UniProt P35637); experiment: proximity ligation; in situ proximity ligation assay in cells, nuclear PLA foci counted with CellProfiler
[3] = molecular target: Fused in sarcoma (FUS) (human (endogenous in U-2 OS)) (UniProt P35637); experiment: co-IP; same crosslinking chromatin IP of endogenous FUS with anti-FUS antibody, beads washed with LB3 and RIPA buffer, Western blot; unsynchronized cells or synchronized S-phase cells; remark: listed apart in the source

binding [2]: binds
binding [1]: binds
Molecule: proliferating cell nuclear antigen (PCNA) (from UniProt P12004 1-261)

binding [2]: binds
binding [1]: binds
Molecule: DNA polymerase δ (POLδ or POLD1) (from UniProt P28340 1-1107)

More lines, now with the values behind:

Molecule: TOP1 (from UniProt P11387 1-765)
binding [1]: binds

B1: UHRF1 (protein, UniProt Q96T88 1-793)
chain: MWIQVRTMDGRQTHTVDSLSRLTKVEELRRKIQELFHVEPGLQRLFYRGKQMEDGHTLFDYEVRLNDTIQLLVRQSLVLPHSTKERDSELSDTDSGCCLGQSESDKSSTHGEAAAETDSRPADEDMWDETELGLYKVNEYVDARDTNMGAWFEAQVVRVTRKAPSRDEPCSSTSRPALEEDVIYHVKYDDYPENGVVQMNSRDVRARARTIIKWQDLEVGQVVMLNYNPDNPKERGFWYDAEISRKRETRTARELYANVVLGDDSLNDCRIIFVDEVFKIERPGEGSPMVDNPMRRKSGPSCKHCKDDVNRLCRVCACHLCGGRQDPDKQLMCDECDMAFHIYCLDPPLSSVPSEDEWYCPECRNDASEVVLAGERLRESKKKAKMASATSSSQRDWGKGMACVGRTKECTIVPSNHYGPIPGIPVGTMWRFRVQVSESGVHRPHVAGIHGRSNDGAYSLVLAGGYEDDVDHGNFFTYTGSGGRDLSGNKRTAEQSCDQKLTNTNRALALNCFAPINDQEGAEAKDWRSGKPVRVVRNVKGGKNSKYAPAEGNRYDGIYKVVKYWPEKGKSGFLVWRYLLRRDDDEPGPWTKEGKDRIKKLGLTMQYPEGYLEALANREREKENSKREEEEQQEGGFASPRTGKGKWKRKSAGGGPSRAGSPRRTSKKTKVEPYSLTAQQSSLIREDKSNAKLWNEVLASLKDRPASGSPFQLFLSKVEETFQCICCQELVFRPITTVCQHNVCKDCLDRSFRAQVFSCPACRYDLGRSYAMQVNQPLQTVLNQLFPGYGNGR
binding [3]: binds
